Data as given in PubChem BioAssay AID1259405 (NCATS, 2018).
Aim: 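Knock-downs that lift recombinant protein yield in hamster ovary cells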 (primary screen). Cells: Chinese hamster CHO-K1 ovary cells with stable secreted eGFP expression. Reagent: single siRNA against mouse genes, 0.8 pmol siRNA per well (2 µl of 400 nM stock). Timing: 3 days. Read-out: 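Per-well intracellular GFP measured by laser scanning cytometry, plus viability from ATP luminescence, each relative to plate median of non-targeting control wells, in %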. Direction: GFP, % of control: higher = more GFP per well, higher productivity; viability (ATP), % of control: higher = more viable cells (more ATP). Hit rule: 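Called active when intracellular GFP, relative to negative control, is at or above 120%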.
The deposit covers about 50,000 reagents; shown is a random part of them. About 4,000 of them (8%) were called active. 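Mouse siRNA library applied to hamster cells; one well for each siRNA.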 Unmarked entries are inactive. The numbers tell different reagents against one gene apart. Reagent sequences are not shown.

Gene	siRNA no.	GFP, % of control	viability (ATP), % of control
Kcnk10 (GeneID 72258)	1	81.1	107
Kcnk10 (GeneID 72258)	2	110	77.3
Kcnk10 (GeneID 72258)	3	84.4	79.7
Gzmk (GeneID 14945)	1	170 (active)	100
Gzmk (GeneID 14945)	2	152 (active)	114
Gzmk (GeneID 14945)	3	58.8	57.6
Abo (GeneID 80908)	1	71.5	77.8
Abo (GeneID 80908)	2	90.7	68.7
Abo (GeneID 80908)	3	66	53.4
Gjb6 (GeneID 14623)	1	98.9	61.2
Gjb6 (GeneID 14623)	2	85.6	97
Gjb6 (GeneID 14623)	3	84.7	98.3
Slc37a3 (GeneID 72144)	1	150 (active)	91.2
Slc37a3 (GeneID 72144)	2	62.5	66.6
Slc37a3 (GeneID 72144)	3	85.5	92.4
Carf (GeneID 241066)	1	106	64.8
Carf (GeneID 241066)	2	37.6	47.4
Carf (GeneID 241066)	3	68.7	105
Gsdma3 (GeneID 450219)	1	50.1	65.3
Gsdma3 (GeneID 450219)	2	98.4	74.3
Gsdma3 (GeneID 450219)	3	37.7	79
Fbxl21 (GeneID 213311)	1	64.4	65.2
Fbxl21 (GeneID 213311)	2	98	82.3
Fbxl21 (GeneID 213311)	3	106	75.2
Zfp12 (GeneID 231866)	1	85.2	58.9
Zfp12 (GeneID 231866)	2	50.9	71.7
Zfp12 (GeneID 231866)	3	79.1	92.2
Slc7a3 (GeneID 11989)	1	63.8	48
Slc7a3 (GeneID 11989)	2	73.7	72.8
Slc7a3 (GeneID 11989)	3	75.8	81.3
Abcd4 (GeneID 19300)	1	71.7	94.2
Abcd4 (GeneID 19300)	2	32.3	51.9
Abcd4 (GeneID 19300)	3	63.1	66.1
Bcas1 (GeneID 76960)	1	76.3	70
Bcas1 (GeneID 76960)	2	99.3	118
Bcas1 (GeneID 76960)	3	87.3	79.9
Nxph1 (GeneID 18231)	1	87.2	91.5
Nxph1 (GeneID 18231)	2	54.3	60.8
Nxph1 (GeneID 18231)	3	68.4	65.6
Tbc1d10c (GeneID 108995)	1	102	52.1
Tbc1d10c (GeneID 108995)	2	64.3	62
Tbc1d10c (GeneID 108995)	3	65.7	52.4
Or1b1 (GeneID 259053)	1	79.8	78.3
Or1b1 (GeneID 259053)	2	77.3	74.2
Or1b1 (GeneID 259053)	3	68.4	44.8
Fut1 (GeneID 14343)	1	131 (active)	97.2
Fut1 (GeneID 14343)	2	54	40.3
Fut1 (GeneID 14343)	3	85.5	97.4
Trpv6 (GeneID 64177)	1	257 (active)	84.2
Trpv6 (GeneID 64177)	2	83.8	74.1
Trpv6 (GeneID 64177)	3	97.8	99
Trpv6 (GeneID 64177)	4	82.3	87.1
Trpv6 (GeneID 64177)	5	144 (active)	102
Trpv6 (GeneID 64177)	6	68.7	73
Zfp438 (GeneID 240186)	1	66.6	74.9
Zfp438 (GeneID 240186)	2	74.2	59.7
Cdk5 (GeneID 12568)	1	178 (active)	81.9
Cdk5 (GeneID 12568)	2	163 (active)	84
Cdk5 (GeneID 12568)	3	96.8	82.7
Cdk5 (GeneID 12568)	4	128 (active)	77.6
Gtf2f1 (GeneID 98053)	1	97.5	62.1
Gtf2f1 (GeneID 98053)	2	93.4	100
Eif4a3 (GeneID 192170)	1	79.6	67.2
Eif4a3 (GeneID 192170)	2	43.8	21.6
Eif4a3 (GeneID 192170)	3	196 (active)	132
Sit1 (GeneID 54390)	1	43.7	21.6
Sit1 (GeneID 54390)	2	48.4	58.6
Sit1 (GeneID 54390)	3	76.7	77.5
Ephb4 (GeneID 13846)	1	85	80.4
Zkscan14 (GeneID 67235)	1	73.2	65.9
Zkscan14 (GeneID 67235)	2	80.4	102
Tbx2 (GeneID 21385)	1	88.1	93.8
Tbx2 (GeneID 21385)	2	91.1	47.3
Tbx2 (GeneID 21385)	3	86.7	93.2
Ccdc136 (GeneID 232664)	1	63.8	77
Ccdc136 (GeneID 232664)	2	89.7	92.1
Ccdc136 (GeneID 232664)	3	119	91.2
Pip4k2c (GeneID 117150)	1	64.2	72.7
Cc2d2a (GeneID 231214)	1	52.2	80.5
Cc2d2a (GeneID 231214)	2	116	71.3
Cc2d2a (GeneID 231214)	3	126 (active)	136
Timeless (GeneID 21853)	1	38.1	26
Timeless (GeneID 21853)	2	64.7	72.1
Timeless (GeneID 21853)	3	107	85.8
Slc35a1 (GeneID 24060)	1	121 (active)	131
Slc35a1 (GeneID 24060)	2	69.2	46
Slc35a1 (GeneID 24060)	3	62.1	65.2
Dnajc12 (GeneID 30045)	1	55.5	27.2
Dnajc12 (GeneID 30045)	2	122 (active)	78.8
Dnajc12 (GeneID 30045)	3	71.1	114
Fbxo16 (GeneID 50759)	1	66.9	72.5
Fbxo16 (GeneID 50759)	2	80.1	54.2
Fbxo16 (GeneID 50759)	3	84.9	75.7
Thap12 (GeneID 72981)	1	76.1	73.1
Thap12 (GeneID 72981)	2	106	85.5
Rrs1 (GeneID 59014)	1	59.7	56.4
Rrs1 (GeneID 59014)	2	136 (active)	49.6
Rrs1 (GeneID 59014)	3	72.6	93.9
Usp9y (GeneID 107868)	1	83.1	90.6
Usp9y (GeneID 107868)	2	47.9	43
Usp9y (GeneID 107868)	3	62.9	55.8
Ykt6 (GeneID 56418)	1	83.7	85.1
Ykt6 (GeneID 56418)	2	75.4	78.9
Ykt6 (GeneID 56418)	3	76	75.8
Trim36 (GeneID 28105)	1	56.4	40.8
Trim36 (GeneID 28105)	2	64.1	77.4
Trim36 (GeneID 28105)	3	105	59.9
